From the supplement of paper PMC12067093, “Discovery and optimisation of a covalent ligand for TRIM25 and its application to targeted protein ubiquitination” (Chemical Science, 2025)
The list shows a part of the results.

The chains behind the UniProt entries cited, without tags or fusion partners. Where a name states a change or a piece, a line headed by the entry shows the natural chain unless it says otherwise.
UniProt Q9P2R3: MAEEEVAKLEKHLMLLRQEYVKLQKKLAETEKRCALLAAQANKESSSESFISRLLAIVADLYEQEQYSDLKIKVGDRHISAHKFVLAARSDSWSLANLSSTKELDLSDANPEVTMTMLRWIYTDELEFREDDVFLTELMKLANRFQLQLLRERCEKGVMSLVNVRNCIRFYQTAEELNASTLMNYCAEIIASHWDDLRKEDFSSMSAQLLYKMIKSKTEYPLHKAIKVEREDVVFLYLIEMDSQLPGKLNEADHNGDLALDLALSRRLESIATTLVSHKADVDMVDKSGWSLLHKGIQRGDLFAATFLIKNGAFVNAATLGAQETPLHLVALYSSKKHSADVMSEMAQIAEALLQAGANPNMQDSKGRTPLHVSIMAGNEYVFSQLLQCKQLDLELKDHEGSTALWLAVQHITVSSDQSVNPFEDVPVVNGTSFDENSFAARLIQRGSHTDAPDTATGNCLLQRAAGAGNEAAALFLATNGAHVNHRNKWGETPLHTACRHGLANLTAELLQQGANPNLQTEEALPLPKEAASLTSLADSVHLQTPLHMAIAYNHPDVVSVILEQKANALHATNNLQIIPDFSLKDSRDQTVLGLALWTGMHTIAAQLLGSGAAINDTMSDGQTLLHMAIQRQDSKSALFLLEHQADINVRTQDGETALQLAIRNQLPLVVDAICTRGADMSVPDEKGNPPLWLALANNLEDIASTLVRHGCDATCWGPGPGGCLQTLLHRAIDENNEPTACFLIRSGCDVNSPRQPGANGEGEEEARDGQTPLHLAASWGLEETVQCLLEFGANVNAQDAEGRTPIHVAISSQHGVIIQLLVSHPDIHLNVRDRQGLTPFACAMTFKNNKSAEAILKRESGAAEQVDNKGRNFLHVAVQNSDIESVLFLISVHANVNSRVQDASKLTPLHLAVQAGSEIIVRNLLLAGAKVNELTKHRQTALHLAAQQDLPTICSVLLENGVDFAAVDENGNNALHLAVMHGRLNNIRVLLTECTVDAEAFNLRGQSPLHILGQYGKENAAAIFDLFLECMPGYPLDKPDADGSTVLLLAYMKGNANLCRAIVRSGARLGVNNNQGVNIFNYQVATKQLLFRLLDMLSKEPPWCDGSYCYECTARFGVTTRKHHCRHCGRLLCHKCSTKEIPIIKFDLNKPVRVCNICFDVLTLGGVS
UniProt O75179: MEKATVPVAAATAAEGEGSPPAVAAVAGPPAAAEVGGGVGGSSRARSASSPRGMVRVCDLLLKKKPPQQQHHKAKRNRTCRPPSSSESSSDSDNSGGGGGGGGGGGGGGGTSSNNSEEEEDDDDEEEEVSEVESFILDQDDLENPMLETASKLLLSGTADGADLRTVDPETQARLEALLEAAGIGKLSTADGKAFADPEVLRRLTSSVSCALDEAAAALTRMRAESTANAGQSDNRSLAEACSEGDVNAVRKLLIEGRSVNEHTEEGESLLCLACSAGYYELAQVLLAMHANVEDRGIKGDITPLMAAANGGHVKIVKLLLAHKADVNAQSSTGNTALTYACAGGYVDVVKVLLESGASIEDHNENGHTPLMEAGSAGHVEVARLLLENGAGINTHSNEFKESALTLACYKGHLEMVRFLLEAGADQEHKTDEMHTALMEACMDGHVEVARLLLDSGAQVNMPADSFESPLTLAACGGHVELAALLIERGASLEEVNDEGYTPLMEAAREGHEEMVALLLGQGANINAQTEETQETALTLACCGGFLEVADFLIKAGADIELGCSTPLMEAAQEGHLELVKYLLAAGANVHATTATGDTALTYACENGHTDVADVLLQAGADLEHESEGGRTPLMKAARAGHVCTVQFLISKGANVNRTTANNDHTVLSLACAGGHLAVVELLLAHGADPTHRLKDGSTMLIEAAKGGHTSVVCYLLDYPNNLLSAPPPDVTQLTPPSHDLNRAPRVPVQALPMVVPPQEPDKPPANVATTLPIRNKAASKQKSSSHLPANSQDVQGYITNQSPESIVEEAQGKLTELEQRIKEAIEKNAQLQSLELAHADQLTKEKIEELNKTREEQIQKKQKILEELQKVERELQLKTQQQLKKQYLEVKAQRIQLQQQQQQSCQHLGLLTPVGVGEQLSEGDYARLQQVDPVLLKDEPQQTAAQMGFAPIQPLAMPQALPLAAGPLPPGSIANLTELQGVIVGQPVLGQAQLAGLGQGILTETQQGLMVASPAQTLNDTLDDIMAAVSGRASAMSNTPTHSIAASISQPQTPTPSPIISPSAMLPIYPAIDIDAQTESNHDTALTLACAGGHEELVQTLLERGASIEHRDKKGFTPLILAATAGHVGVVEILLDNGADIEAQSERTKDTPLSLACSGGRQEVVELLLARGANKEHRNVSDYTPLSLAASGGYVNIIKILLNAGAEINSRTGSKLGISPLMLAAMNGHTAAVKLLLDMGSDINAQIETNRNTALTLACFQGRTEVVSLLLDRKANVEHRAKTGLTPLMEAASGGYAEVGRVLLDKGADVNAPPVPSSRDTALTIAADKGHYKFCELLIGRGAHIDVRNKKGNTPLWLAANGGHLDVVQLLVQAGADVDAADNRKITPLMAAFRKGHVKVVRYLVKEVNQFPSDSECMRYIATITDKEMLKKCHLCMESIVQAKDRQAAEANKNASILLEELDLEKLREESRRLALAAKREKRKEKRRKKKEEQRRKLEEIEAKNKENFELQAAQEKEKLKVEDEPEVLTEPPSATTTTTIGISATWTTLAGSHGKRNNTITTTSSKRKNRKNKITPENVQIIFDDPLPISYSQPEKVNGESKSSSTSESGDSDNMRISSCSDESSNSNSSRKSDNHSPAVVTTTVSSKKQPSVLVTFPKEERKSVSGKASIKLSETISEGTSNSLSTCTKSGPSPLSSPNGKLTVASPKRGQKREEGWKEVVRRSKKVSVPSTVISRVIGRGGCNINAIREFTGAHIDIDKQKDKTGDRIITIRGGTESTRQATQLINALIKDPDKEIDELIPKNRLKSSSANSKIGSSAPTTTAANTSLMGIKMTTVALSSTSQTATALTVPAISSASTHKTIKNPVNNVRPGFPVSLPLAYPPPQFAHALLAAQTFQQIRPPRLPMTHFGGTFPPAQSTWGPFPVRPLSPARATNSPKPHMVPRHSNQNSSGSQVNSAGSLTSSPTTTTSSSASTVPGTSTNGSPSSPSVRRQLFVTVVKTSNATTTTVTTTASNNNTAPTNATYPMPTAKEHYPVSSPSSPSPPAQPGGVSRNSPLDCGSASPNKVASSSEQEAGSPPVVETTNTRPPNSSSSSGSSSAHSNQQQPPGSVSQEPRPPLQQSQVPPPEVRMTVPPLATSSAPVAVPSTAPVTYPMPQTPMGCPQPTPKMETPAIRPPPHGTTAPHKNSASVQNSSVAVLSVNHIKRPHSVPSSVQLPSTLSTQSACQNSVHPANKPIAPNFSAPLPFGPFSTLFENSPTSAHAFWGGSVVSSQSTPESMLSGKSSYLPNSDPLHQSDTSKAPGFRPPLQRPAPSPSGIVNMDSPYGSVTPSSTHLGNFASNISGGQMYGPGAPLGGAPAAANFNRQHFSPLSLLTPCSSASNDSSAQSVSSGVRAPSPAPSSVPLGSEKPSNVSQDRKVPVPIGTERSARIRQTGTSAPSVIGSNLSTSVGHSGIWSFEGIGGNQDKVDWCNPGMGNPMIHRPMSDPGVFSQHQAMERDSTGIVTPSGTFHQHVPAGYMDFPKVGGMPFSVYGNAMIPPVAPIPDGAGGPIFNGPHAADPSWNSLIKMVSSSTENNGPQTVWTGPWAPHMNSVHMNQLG
UniProt Q96CW1: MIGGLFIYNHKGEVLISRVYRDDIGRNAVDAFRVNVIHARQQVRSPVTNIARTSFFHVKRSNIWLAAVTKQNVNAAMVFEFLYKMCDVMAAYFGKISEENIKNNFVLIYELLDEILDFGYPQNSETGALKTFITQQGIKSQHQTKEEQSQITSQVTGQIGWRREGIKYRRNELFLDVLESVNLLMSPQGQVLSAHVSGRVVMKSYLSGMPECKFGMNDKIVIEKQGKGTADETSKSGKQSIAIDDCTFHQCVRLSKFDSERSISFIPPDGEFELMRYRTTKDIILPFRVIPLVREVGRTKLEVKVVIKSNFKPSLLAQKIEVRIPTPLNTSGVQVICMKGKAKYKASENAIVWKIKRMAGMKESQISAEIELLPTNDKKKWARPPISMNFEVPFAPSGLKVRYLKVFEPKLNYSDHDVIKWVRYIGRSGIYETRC
UniProt P09525: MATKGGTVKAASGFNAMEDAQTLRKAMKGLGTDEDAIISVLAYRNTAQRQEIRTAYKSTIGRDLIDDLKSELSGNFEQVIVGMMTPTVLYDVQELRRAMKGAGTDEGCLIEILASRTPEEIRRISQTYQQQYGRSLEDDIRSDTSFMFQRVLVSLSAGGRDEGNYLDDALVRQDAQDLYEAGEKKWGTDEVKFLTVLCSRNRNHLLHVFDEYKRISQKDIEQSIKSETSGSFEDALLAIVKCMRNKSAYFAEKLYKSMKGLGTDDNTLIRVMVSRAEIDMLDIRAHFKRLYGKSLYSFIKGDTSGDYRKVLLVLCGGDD
UniProt O95782: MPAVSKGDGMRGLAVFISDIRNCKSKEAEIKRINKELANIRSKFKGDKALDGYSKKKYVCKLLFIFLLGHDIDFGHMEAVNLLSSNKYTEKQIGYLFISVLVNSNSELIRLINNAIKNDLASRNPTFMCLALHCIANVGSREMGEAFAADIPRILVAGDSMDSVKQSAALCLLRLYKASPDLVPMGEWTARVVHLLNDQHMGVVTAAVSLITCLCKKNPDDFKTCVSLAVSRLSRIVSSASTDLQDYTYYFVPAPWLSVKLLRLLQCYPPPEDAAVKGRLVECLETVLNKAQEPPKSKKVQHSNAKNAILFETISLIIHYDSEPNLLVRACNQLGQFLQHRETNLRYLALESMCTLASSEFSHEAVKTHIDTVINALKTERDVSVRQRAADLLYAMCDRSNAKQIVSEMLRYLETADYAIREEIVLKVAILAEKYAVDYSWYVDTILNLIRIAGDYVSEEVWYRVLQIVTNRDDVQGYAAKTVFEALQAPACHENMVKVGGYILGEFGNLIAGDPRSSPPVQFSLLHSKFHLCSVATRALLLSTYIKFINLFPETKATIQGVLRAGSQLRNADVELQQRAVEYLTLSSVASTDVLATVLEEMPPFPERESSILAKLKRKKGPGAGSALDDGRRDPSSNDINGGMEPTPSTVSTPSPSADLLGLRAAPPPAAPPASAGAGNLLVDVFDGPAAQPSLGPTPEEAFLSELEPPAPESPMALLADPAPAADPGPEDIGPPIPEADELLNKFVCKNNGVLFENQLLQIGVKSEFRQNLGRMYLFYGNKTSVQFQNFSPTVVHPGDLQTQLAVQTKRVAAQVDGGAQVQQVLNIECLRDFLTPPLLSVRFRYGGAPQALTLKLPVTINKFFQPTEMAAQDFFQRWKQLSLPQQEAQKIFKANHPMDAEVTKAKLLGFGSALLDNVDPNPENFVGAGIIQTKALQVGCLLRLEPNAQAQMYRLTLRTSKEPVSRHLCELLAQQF
UniProt Q9Y6B7: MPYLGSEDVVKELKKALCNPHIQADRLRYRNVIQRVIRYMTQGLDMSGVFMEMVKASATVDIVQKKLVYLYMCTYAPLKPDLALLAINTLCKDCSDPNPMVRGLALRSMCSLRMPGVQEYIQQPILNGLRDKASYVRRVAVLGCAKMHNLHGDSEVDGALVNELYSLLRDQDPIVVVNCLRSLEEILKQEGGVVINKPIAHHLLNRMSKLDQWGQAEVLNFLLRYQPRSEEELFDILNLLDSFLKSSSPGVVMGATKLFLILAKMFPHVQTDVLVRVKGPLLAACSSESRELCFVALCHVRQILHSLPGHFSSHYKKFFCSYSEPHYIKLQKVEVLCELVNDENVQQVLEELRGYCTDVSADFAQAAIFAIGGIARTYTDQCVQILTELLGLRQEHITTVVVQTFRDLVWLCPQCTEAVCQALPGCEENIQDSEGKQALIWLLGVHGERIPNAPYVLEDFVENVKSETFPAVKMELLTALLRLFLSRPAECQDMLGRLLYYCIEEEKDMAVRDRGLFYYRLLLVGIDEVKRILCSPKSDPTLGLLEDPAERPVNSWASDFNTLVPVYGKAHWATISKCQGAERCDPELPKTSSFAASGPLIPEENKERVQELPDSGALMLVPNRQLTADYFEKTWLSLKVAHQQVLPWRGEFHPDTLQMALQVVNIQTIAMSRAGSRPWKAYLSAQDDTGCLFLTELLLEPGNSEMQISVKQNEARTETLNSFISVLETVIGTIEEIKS
UniProt P04083: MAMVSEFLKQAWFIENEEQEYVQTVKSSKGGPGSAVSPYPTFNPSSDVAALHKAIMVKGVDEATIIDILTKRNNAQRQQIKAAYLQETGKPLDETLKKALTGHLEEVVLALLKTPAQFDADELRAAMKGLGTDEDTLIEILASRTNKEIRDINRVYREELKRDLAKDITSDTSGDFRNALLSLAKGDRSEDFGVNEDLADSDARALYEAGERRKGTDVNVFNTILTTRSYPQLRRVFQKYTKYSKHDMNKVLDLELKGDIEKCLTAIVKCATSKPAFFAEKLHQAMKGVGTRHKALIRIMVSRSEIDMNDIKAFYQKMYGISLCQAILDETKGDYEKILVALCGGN

Compound: CC1Cc2ccccc2N1C(=O)C1CCCN(C1)C(=O)CCl (mixture of isomers) [TRIM25 ligand 11 (diastereomer mixture)]
Assay: probe-labelled cysteine peptide fold change vs DMSO (competition) (log2 fold change); higher = less target engagement (more negative = stronger competition)
Conditions: THP-1, incubation time: 4 h
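Further: competitive chemoproteomic profiling in live THP-1 cells with an iodoacetamide desthiobiotin (IA-DTB) probe, comparing probe-labelled peptide intensities in compound-treated cells against DMSO-treated controls.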

| Target | probe-labelled cysteine peptide fold change (10 µM) | probe-labelled cysteine peptide fold change (50 µM) |
| --- | --- | --- |
| ANKFY1_Q9P2R3_995_VLLTECTVDAEAFNLR (UniProt Q9P2R3) | 0.097 | 0.189 |
| ANKRD16_Q6P6B7_43_EELQAAGGCPGPAGDTLLHCAAR (UniProt Q6P6B7) | 0.132 | -0.0106 |
| ANKRD17_O75179_210_RLTSSVSCALDEAAAALTR (UniProt O75179) | 5.79e-05 | -0.0111 |
| AP2B1_P63010_391_CVSTLLDLIQTK (UniProt P63010) | 0.102 | 0.275 |
| AP2M1_Q96CW1_246+251_QSIAIDDCTFHQCVR (UniProt Q96CW1) | 0.0346 | -0.0933 |
| ANKHD1_Q8IWZ3_213_SLAEACSDGDVNAVRK (UniProt Q8IWZ3) | -0.0766 | -0.0775 |
| APAF1_O14727_177_DHSLLEGCFPGGVHWVSVGK (UniProt O14727) | -0.0684 | -0.0879 |
| ANKFY1_Q9P2R3_460_GSHTDAPDTATGNCLLQR (UniProt Q9P2R3) | -0.0416 | -0.142 |
| APEX1_P27695_310_ALGSDHCPITLYLAL (UniProt P27695) | -0.0822 | -0.0947 |
| APBB1IP_Q7Z5R6_220_THCDCNVDWCLYEIYPELQIER (UniProt Q7Z5R6) | -0.104 | 0.00553 |
| ANKLE1_Q8NAG6_124_GLELLLSQGADPALRDQDGLRPLDLALQQGHLECAR (UniProt Q8NAG6) | -0.0578 | 0.0137 |
| APIP_Q96GX9_97_SQCTPLFMNAYTMR (UniProt Q96GX9) | 0.0257 | 0.00999 |
| ANXA4_P09525_315_KVLLVLCGGDD (UniProt P09525) | -0.339 | -0.316 |
| ANKRD50_Q9ULJ7_744_GAEVDHCDK (UniProt Q9ULJ7) | 0.159 | 0.0869 |
| AP2A1_O95782_283_LVECLETVLNK (UniProt O95782) | -0.127 | -0.153 |
| AP3D1_O14617_574_ASCILQLVK (UniProt O14617) | -0.039 | -0.0126 |
| AP4B1_Q9Y6B7_298_ELCFVALCHVR (UniProt Q9Y6B7) | 0.0465 | 0.0303 |
| AP4B1_Q9Y6B7_534_ILCSPK (UniProt Q9Y6B7) | 0.0761 | -0.00258 |
| ANO10_Q9NW15_92_ECNDNTMR (UniProt Q9NW15) | 0.0463 | 0.043 |

2 entries drawn at random from the list so far:

| Target | probe-labelled cysteine peptide fold change (10 µM) | probe-labelled cysteine peptide fold change (50 µM) |
| --- | --- | --- |
| AP2M1_Q96CW1_246+251_QSIAIDDCTFHQCVR (UniProt Q96CW1) | 0.0346 | -0.0933 |
| ANKRD16_Q6P6B7_43_EELQAAGGCPGPAGDTLLHCAAR (UniProt Q6P6B7) | 0.132 | -0.0106 |

More entries follow:

| Target | probe-labelled cysteine peptide fold change (10 µM) | probe-labelled cysteine peptide fold change (50 µM) |
| --- | --- | --- |
| AP5S1_Q9NUS5_27_VLYSCVFGAEK (UniProt Q9NUS5) | -0.107 | -0.0101 |
| ANKRD27_Q96NW4_899_IMELLQVVPSCVASLDDVAETDRK (UniProt Q96NW4) | 0.106 | -0.0858 |
| ANLN_Q9NQW6_978_CQVNSSVEER (UniProt Q9NQW6) | 0.215 | 0.247 |
| APMAP_Q9HDC9_149_TRDDEPVCGR (UniProt Q9HDC9) | 0.0828 | 0.221 |
| ANKRD17_O75179_1158_DTPLSLACSGGR (UniProt O75179) | 0.0848 | 0.00766 |
| API5_Q9BZZ5_71_HFPELADSAINAQLDLCEDEDVSIRR (UniProt Q9BZZ5) | 0.0516 | 0.106 |
| ANKZF1_Q9H8Y5_180_CVLGPHQDPPEEAELLLQNLQSR (UniProt Q9H8Y5) | -0.313 | -0.207 |
| AP1G1_O43747_160_AALCAVHVIR (UniProt O43747) | 0.0228 | 0.101 |
| AP3M1_Q9Y2T2_209_SGSTVFAEIQGVIDACIK (UniProt Q9Y2T2) | -0.0345 | 0.218 |
| ANKHD1_Q8IWZ3_2518_VIQNSTECTDAQQIWPGTWAPHIGNMHLK (UniProt Q8IWZ3) | 0.158 | -0.0333 |
| AP2M1_Q96CW1_212_SYLSGMPECK (UniProt Q96CW1) | 0.00293 | -0.0213 |
| APEH_P13798_152_HGPVYEDDCFGCLSWSHSETHLLYVAEK (UniProt P13798) | 0.242 | -0.0644 |
| AP2A1_O95782_970_HLCELLAQQF (UniProt O95782) | 0.106 | 0.0112 |
| ANO6_Q4KMQ2_250_AAFPLHDCK (UniProt Q4KMQ2) | 0.0116 | 0.0223 |
| ANXA1_P04083_324_MYGISLCQAILDETK (UniProt P04083) | 0.0699 | 0.0579 |
| ANXA4_P09525_108_GAGTDEGCLIEILASR (UniProt P09525) | -0.0552 | -0.0547 |
| AP3D1_O14617_1089_ICFHHHFSVVER (UniProt O14617) | 0.489 | 0.463 |
| AOAH_P28039_329_NHCNHR (UniProt P28039) | 0.0863 | 0.113 |
| ANKFY1_Q9P2R3_389_TPLHVSIMAGNEYVFSQLLQCK (UniProt Q9P2R3) | -0.0874 | -0.184 |
